Measurements reported in PubChem BioAssay AID1259308 (NCATS, 2017).
The deposit covers about 59,000 reagents; shown is a part drawn at random. Of all reagents, about 1,510 (2.6%) are marked active. 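Calls use total luciferase alone and ignore viability, so some active siRNAs may act by altering cell number.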 Reagents against one gene are numbered here. Further read-outs or replicates are left out here.

Test: 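Knock-downs that increase output of a recombinant reporter protein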 (primary screen)
Cell system: human HEK293 embryonic kidney cells stably expressing firefly luciferase (HEK-CMV-Luc2-Hygro)
Knock-down reagent: single siRNA against human genes, 0.8 pmol siRNA per well
Duration: 72 h
Measurement: 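Reporter luminescence and viable-cell signal on separate replicate plates, given as percent of non-targeting control and median/MAD z-scores, plus per-cell luciferase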
Direction: total luciferase, z-score: higher = more reporter protein produced
Call rule: 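An siRNA counts as active if its total luciferase robust z-score exceeds 3; genes with two or more such siRNAs out of three were retested with fresh siRNAs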
Calls: active = raised luciferase; inactive = no rise

total luciferase, z-score, by gene and reagent
NR2F1: #1 0.57 inactive; #2 0.0248 inactive; #3 1.81 inactive
GK: #1 -0.157 inactive; #2 0.149 inactive; #3 1.12 inactive
PPP1R10: #1 -1.74 inactive; #2 -1.98 inactive; #3 -1.75 inactive
OR52J3: #1 -0.763 inactive; #2 0.108 inactive; #3 1.23 inactive
HHLA2: #1 0.13 inactive; #2 -0.487 inactive; #3 1.21 inactive
TMEM51: #1 -2.91 inactive; #2 0.374 inactive; #3 0.238 inactive
GDPD1: #1 2.06 inactive; #2 0.204 inactive; #3 0.0817 inactive

Laid out differently: results already given.
{"gene":"TMEM51","siRNA no.":2,"total luciferase, z-score":0.374,"activity call":"inactive"}
{"gene":"TMEM51","siRNA no.":3,"total luciferase, z-score":0.238,"activity call":"inactive"}
{"gene":"GDPD1","siRNA no.":1,"total luciferase, z-score":2.06,"activity call":"inactive"}

More reagents follow:
total luciferase, z-score, by gene and reagent
RASGRF1: #1 0.199 inactive; #2 0.619 inactive; #3 -0.199 inactive
PTGR3: #1 0.109 inactive; #2 2.24 inactive; #3 -0.356 inactive
ACSM5: #1 3.17 active; #2 0.521 inactive; #3 0.21 inactive
NUDT15: #1 -1.81 inactive; #2 0.488 inactive; #3 -1.44 inactive
DEFB105A: #1 -0.344 inactive; #2 -1.56 inactive; #3 -0.639 inactive
CUTC: #1 -0.169 inactive; #2 -0.208 inactive; #3 -0.284 inactive
